Taken from: PubChem BioAssay AID743454 (Peter MacCallum Cancer Centre, 2014)

Aim: 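Genes whose loss kills vorinostat-resistant colon cancer cells under vorinostat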 (primary screen)
System: human HCT116-VR colon cancer cells, selected for vorinostat resistance
Knock-down reagent: siRNA pool against human genes, 40 nM siRNA pool
Time to read-out: vorinostat for 24 h, read-out about 72 h after transfection
Challenge: vorinostat at 2.5 µM final
Measurement: 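Two measures, CellTiter-Fluor viability and luminescent caspase 3/7 activity, each as fold change against same-plate mock wells, mean of duplicates, then screen-wide robust z-score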
Direction: viability robust z-score: higher = more viable cells than screen typical; caspase robust z-score: higher = more caspase 3/7 activity than screen typical
Hit rule: 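a knock-down is a hit when classed RV1 or RV2 for lowered viability, or CA1 or CA2 for caspase activation; those lethal without drug were dropped; hits were retested singly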
In all, the deposit lists about 18,000 reagents; shown is a random part of them. In the full data, 450 (2.5%) were called active. 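Single biological run; no consistent viability z cut-off exists, so the class columns, not z-scores, define the calls.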 Reagent sequences are not shown.

Silencing of TENT2 (GeneID 167153) gave: viability hit class no change; caspase hit class no change; viability robust z-score 0.04; caspase robust z-score -0.65; inactive. With knock-down of ECM2 (GeneID 1842) the results were viability hit class no change; caspase hit class no change; viability robust z-score -0.26; caspase robust z-score -0.45; inactive. Knock-down of C5orf15 (GeneID 56951) came out at: viability hit class no change; caspase hit class no change; viability robust z-score -1.14; caspase robust z-score -0.04; inactive. For DPH1 (GeneID 1801), the values are viability hit class no change; caspase hit class no change; viability robust z-score -0.21; caspase robust z-score 0.66; inactive. SCN4A (GeneID 6329) showed viability hit class no change; caspase hit class no change; viability robust z-score -0.33; caspase robust z-score -0.44; inactive. RDM1 (GeneID 201299) showed viability hit class no change; caspase hit class no change; viability robust z-score 0.48; caspase robust z-score 0.3; inactive.

After knock-down of PSMD9 (GeneID 5715), the record shows viability hit class no change; caspase hit class no change; viability robust z-score -1.17; caspase robust z-score 0.92; inactive. ANKMY2 (GeneID 57037) showed viability hit class no change; caspase hit class no change; viability robust z-score -0.51; caspase robust z-score -0.58; inactive. Silencing of ST6GALNAC4 (GeneID 27090) resulted in: viability hit class no change; caspase hit class no change; viability robust z-score -0.54; caspase robust z-score -0.03; inactive. After knock-down of EPHX2 (GeneID 2053), the record shows viability hit class no change; caspase hit class no change; viability robust z-score 1.05; caspase robust z-score 2.64; inactive. For TAOK2 (GeneID 9344), the entry reads viability hit class no change; caspase hit class no change; viability robust z-score -0.08; caspase robust z-score 0.27; inactive. With knock-down of FNBP1 (GeneID 23048) the results were viability hit class no change; caspase hit class no change; viability robust z-score 1.36; caspase robust z-score -0.45; inactive.
